Experimental data: paper PMC11191273
No constants are given. Whether binding was seen depends on the method and setting. In cells and extracts the contact can be indirect. These calls come from enrichment with a bait or labelling near it, and not all partners need be listed.

Chains of the proteins cited; added tags and fusions are not shown.
UniProt Q9UMX0: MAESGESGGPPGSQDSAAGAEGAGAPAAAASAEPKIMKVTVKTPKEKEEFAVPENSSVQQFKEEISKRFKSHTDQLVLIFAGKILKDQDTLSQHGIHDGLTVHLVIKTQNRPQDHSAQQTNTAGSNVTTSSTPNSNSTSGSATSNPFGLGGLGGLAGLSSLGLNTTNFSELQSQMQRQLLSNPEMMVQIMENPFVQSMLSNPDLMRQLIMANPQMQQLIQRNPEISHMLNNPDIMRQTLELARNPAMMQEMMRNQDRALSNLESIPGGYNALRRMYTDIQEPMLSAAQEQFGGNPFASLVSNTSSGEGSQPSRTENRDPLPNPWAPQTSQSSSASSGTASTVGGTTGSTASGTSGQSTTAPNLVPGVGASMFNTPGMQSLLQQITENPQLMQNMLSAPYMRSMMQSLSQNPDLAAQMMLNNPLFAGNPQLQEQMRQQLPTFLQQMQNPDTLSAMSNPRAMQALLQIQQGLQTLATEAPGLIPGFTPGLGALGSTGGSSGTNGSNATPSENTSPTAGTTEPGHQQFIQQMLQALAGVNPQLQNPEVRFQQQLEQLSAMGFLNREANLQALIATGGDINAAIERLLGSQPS
UniProt P18085: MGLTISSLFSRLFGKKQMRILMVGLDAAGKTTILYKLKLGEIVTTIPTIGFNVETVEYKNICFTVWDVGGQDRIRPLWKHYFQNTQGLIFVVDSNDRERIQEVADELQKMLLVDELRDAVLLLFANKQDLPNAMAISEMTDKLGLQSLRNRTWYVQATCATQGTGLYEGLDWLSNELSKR
UniProt P60842: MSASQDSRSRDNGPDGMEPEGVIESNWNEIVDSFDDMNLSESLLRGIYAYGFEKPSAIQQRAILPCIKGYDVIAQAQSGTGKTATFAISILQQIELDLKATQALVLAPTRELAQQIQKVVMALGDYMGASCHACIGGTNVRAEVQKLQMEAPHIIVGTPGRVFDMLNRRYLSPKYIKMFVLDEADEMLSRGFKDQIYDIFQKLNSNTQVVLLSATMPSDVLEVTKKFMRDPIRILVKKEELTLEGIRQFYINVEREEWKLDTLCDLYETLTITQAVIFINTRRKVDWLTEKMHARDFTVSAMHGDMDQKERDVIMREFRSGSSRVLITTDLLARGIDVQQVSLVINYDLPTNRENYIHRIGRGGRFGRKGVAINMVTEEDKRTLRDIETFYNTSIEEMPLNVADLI
UniProt P35579: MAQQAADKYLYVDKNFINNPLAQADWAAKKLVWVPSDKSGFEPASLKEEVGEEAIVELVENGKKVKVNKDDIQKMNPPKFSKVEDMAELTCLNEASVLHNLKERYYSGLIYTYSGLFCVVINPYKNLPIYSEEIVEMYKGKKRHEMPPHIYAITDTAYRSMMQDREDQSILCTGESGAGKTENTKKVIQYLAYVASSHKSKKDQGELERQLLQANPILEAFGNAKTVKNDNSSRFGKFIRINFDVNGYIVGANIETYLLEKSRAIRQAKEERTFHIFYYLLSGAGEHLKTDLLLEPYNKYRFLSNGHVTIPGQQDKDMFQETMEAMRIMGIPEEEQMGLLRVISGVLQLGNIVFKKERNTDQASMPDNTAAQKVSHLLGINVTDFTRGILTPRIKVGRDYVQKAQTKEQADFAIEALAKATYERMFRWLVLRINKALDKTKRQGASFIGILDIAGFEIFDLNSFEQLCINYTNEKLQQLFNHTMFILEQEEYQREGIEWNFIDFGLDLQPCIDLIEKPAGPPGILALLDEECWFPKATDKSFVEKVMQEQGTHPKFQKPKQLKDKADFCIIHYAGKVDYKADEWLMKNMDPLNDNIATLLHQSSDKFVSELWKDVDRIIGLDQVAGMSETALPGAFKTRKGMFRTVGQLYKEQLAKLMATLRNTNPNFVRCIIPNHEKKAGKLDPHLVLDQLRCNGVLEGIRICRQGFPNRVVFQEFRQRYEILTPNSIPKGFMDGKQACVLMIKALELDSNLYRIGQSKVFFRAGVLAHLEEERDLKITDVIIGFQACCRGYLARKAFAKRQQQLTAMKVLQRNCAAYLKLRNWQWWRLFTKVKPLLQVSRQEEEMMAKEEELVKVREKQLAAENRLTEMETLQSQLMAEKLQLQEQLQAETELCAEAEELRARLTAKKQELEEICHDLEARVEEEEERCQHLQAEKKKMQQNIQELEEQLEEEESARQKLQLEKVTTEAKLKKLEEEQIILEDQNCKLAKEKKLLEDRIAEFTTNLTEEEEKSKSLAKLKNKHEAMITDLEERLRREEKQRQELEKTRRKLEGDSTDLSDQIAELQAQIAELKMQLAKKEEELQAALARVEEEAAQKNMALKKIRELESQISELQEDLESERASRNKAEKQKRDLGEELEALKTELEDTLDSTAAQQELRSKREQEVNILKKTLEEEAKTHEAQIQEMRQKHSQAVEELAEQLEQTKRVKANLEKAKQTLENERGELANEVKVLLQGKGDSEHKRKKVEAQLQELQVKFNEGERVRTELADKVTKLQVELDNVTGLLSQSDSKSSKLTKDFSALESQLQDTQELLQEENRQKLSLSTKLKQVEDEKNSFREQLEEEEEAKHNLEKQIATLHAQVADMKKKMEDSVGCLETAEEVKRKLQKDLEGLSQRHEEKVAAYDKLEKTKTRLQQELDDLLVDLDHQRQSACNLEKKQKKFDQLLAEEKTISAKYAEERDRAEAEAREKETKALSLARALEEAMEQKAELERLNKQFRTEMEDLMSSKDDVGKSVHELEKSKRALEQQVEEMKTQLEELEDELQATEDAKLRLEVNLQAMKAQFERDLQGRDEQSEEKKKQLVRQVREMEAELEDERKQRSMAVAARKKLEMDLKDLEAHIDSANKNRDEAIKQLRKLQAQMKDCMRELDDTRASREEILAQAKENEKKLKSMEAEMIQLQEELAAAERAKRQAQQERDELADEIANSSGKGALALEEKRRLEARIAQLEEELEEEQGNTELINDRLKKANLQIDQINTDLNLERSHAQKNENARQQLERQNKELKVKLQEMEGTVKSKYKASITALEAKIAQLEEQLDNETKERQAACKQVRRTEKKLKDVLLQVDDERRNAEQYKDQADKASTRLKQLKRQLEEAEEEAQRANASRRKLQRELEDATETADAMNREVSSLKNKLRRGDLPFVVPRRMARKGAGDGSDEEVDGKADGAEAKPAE
UniProt P60900: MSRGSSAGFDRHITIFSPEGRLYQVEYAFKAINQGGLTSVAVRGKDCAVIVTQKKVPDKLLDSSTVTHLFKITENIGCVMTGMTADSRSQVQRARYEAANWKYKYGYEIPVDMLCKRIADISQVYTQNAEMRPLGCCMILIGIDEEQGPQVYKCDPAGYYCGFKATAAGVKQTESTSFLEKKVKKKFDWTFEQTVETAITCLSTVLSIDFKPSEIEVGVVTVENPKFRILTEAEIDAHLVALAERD

Target: 3Flag-UBQLN1 (Ubiquilin1, Flag-tagged) (human) (UniProt Q9UMX0)
Assay: affinity purification with mass spectrometry; anti-Flag immunoprecipitation from lysate (NETN buffer) of hESCs stably expressing 3Flag-UBQLN1, Protein G beads, SDS-PAGE, LC/MS

Row | Substance | binding
1 | ARF4 (from UniProt P18085 1-180) | binds
2 | EIF4A1 (from UniProt P60842 1-406) | binds
3 | MYH9 (from UniProt P35579 1-1960) | binds
4 | PSMA6 (from UniProt P60900 1-246) | binds
